# Results as given in PubChem BioAssay AID540303 (National Center for Advancing Translational Sciences (NCATS), 2011).
# The campaign covered roughly 330,000 compounds. About 1,000 (0.3%) were called active. Inconclusive means that the source gave no clear call. Such entries were picked first, then a sample of the others. Calls come from the whole dose curve; as a rule, active = well fitted inhibition curve with a large enough effect; inconclusive = small, poorly fitted or top-dose-only effect; inactive = no such curve, though single readings can be large or run the other way; tested in mouse RAW 264.7 cells. Potencies of inconclusive entries are doubtful fits and often do not repeat. The source holds several records for some structures; these can differ, active in one and inactive in another.
# Assay: qHTS for Inhibitors of Cell Surface uPA Generation; note: nearly all actives have a fitted effect of over 55% in size
# Conditions: cell surface uPA generation assay; series mostly up to 38.3 µM
# Method in brief: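 RAW 264.7 cells (4000/well) were plated overnight at 37 C and then given compounds in a 1:5 series (up to 38.3 uM final) plus reagent for 24 h. Intracellular ATP was measured by ATP-Lite luminescence and stays elevated when uPA-dependent LF entry is blocked.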
# Potency is the fitted concentration of half-maximal effect.
row,SMILES,Potency
1,O=C(NCCOc1ccccc1)C1Nc2ccc(C(F)(F)F)cc2C2c3ccccc3CC12 (configuration not stated),"inconclusive: 12.6 µM [inhibitor, single point]"
2,CCOC(=O)C1=C(c2ccccc2)NC(=O)NC1c1ccc(N(C)C)cc1 (configuration not stated),inactive
3,COCCNC(=O)C(=O)Nc1cc2c3c(c1)CCC(=O)N3CCC2,"inconclusive: 5.62 µM [inhibitor, single point]"
4,COC1=C(Nc2ccccc2)C(=O)c2ccccc2C1=O,"inconclusive: 10 µM [inhibitor, single point]"
5,COc1ccc(C2C(C(=O)c3ccccc3)=C(C)Nc3nc4ccccc4n32)c(OC)c1 (configuration not stated),inactive
6,O=[N+]([O-])c1ccccc1NCCNS(=O)(=O)c1ccc(Cl)cc1,inactive
7,COc1cccc(CN2C(=O)NC3(CCCCCC3)C2=O)c1,inactive
8,O=C(Nc1ccc(SC(F)F)cc1)c1cc(-c2ccncc2)nc2ccccc12,"inconclusive: 12.6 µM [inhibitor, single point]"
9,C=CC[C@@H](CC(=O)N(CCO)Cc1ccccc1)C(=O)N[C@H](COC(=O)[C@@H](CC=C)Cc1ccc(F)cc1)Cc1c[nH]c2ccccc12,"inconclusive: 28.2 µM [inhibitor, single point]"
10,O=C(/C=C/c1ccc(Br)o1)NC(c1ccccc1)c1ccccc1,"inconclusive: 3.55 µM [inhibitor, full curve, poor fit]"
11,C#CCOCCOCCOCCNc1nc(N2CCN(C(=O)CCCCCCCCCCNC(=O)[C@H](CCCCN)n3cc(C)nn3)CC2)nc(N2CCN(C(=O)CCCCCCCCCCNC(=O)[C@H](CCCN=C(N)N)n3cc(C[C@@H](C)CC)nn3)CC2)n1,"inconclusive: 12.6 µM [inhibitor, single point]"
12,COc1ccc(NC(=O)C2CCC(C(C)(C)C)CC2)cc1S(=O)(=O)N1CCOCC1 (configuration not stated),"inconclusive: 6.31 µM [inhibitor, partial curve, poor fit]"
13,COc1cc(NC(=O)c2cc(-c3cccc(O)c3)on2)cc(OC)c1OC,"inconclusive: 12.6 µM [inhibitor, single point]"
14,COc1ccc(-c2oc3ccccc3c2C#Cc2cncn2C)cc1,"inconclusive: 10 µM [inhibitor, partial curve]"
15,COc1ccccc1NC(=O)Cn1nnc(C(=O)NCc2cccs2)c1N,"inconclusive: 0.01 µM [inhibitor, full curve, poor fit]"
16,Cc1nn(-c2ccccn2)c2c1C(=O)CC(C)(C)C2N=[N+]=[N-] (configuration not stated),"inconclusive: 25.1 µM [inhibitor, partial curve, poor fit]"
17,COc1cccc(C(=O)Nc2ccc(C3CC3(Cl)Cl)cc2)c1 (configuration not stated),"inconclusive: 10 µM [inhibitor, single point]"
18,O=C(NC1CCN(S(=O)(=O)c2cccc(F)c2)CC1)c1cccc(F)c1,"inconclusive: 0.316 µM [inhibitor, full curve, poor fit]"
19,CC(=O)c1ccc(-c2ccc(C(=O)N3CCC(C(N)=O)CC3)o2)cc1,"inconclusive: 6.31 µM [inhibitor, single point]"
20,N#C/C(=C\c1ccc(N2CCOCC2)o1)C(=O)NCC1CCCO1 (configuration not stated),inactive
21,O=C1C=C(c2ccc3ncccc3c2)C[C@@H](c2ccc3c(c2)OCO3)C1,"inconclusive: 2.51 µM [inhibitor, full curve, poor fit]"

# Exported tab-delimited: part of the list above.
row	SMILES	Potency
13	COc1cc(NC(=O)c2cc(-c3cccc(O)c3)on2)cc(OC)c1OC	inconclusive: 12.6 µM [inhibitor, single point]
14	COc1ccc(-c2oc3ccccc3c2C#Cc2cncn2C)cc1	inconclusive: 10 µM [inhibitor, partial curve]
15	COc1ccccc1NC(=O)Cn1nnc(C(=O)NCc2cccs2)c1N	inconclusive: 0.01 µM [inhibitor, full curve, poor fit]

# The list continues:

row,SMILES,Potency
1,CC1(C)CC(=O)C=C(NNC(=O)c2ccccc2O)C1,"inconclusive: 10 µM [inhibitor, single point]"
2,CC(C)N(C(=O)[C@H]1C[C@H](CC(=O)NC(C)(C)C)C(=O)N2CCc3c([nH]c4cc(-c5ccco5)ccc34)[C@]12C)C(C)C,"inconclusive: 28.2 µM [inhibitor, single point]"
3,CC(C)(C)c1ccc(OCc2ccc(C(=O)NCc3cccnc3)o2)cc1,"inconclusive: 5.62 µM [inhibitor, partial curve]"
4,COc1ccccc1-n1c(-c2ccccc2)c[n+]2c1CCc1ccccc1-2,active: 11.2 µM
5,N#Cc1nc(Nc2cccc(Cl)c2)c2ncn(C3CCCC3)c2n1,"inconclusive: 8.91 µM [inhibitor, single point]"
6,Cn1c(-c2ncc(F)cc2F)cc2onc(-c3c(F)cccc3Cl)c2c1=O,"inconclusive: 2.82 µM [inhibitor, partial curve, poor fit]"
7,C#CCOCCOCCOCCNc1nc(N2CCN(C(=O)CCCCCCCCCCNC(=O)[C@H]([C@@H](C)CC)n3cc(CCCCN=C(N)N)nn3)CC2)nc(N2CCN(C(=O)CCCCCCCCCCNC(=O)[C@H](CCCCN)n3cc(C)nn3)CC2)n1,"inconclusive: 12.6 µM [inhibitor, single point]"
8,CC(NCC(=O)Nc1cc(S(=O)(=O)N2CCCCCC2)ccc1Cl)c1ccccc1 (configuration not stated),"inconclusive: 0.501 µM [inhibitor, full curve, poor fit]"
9,O=C(Nc1cccc(-c2csc(Nc3ccc(Cl)cc3)n2)c1)c1cc([N+](=O)[O-])cc(C(F)(F)F)c1,"inconclusive: 12.6 µM [inhibitor, single point]"
10,CCc1ccc(/C=N/NC(=O)c2nnn(-c3nonc3N)c2CN2CCOCC2)cc1,"inconclusive: 12.6 µM [inhibitor, single point]"
11,Cc1ccc(NC(=O)Nc2cccc(F)c2)nc1,inactive
12,Cc1cc(C)c(C)c(S(=O)(=O)N2CCN(c3ncnc4ccccc34)CC2)c1C,"inconclusive: 12.6 µM [inhibitor, single point]"
13,C#CCCOC(=O)N1C2=NC(C(=O)OC)=C(C(=O)OC)[C@@H]3N(C)c4ccc(OC)cc4[C@]23C[C@H]1C(=O)OC,"inconclusive: 3.16 µM [inhibitor, partial curve]"
14,COc1ccc(C2/C=C\CN(C(=O)Nc3ccccc3-c3ccccc3)CC(=O)N2Cc2ccc(F)cc2)cc1 (configuration not stated),"inconclusive: 7.08 µM [inhibitor, single point]"
15,COc1ccc(-c2csc(NC(=O)CN3C(=O)C4CC=CCC4C3=O)n2)cc1 (configuration not stated),"inconclusive: 28.2 µM [inhibitor, single point]"
16,CCCc1nc(SCC(=O)c2ccc(F)cc2)c2ccccc2n1,"inconclusive: 12.6 µM [inhibitor, single point]"
17,O=C(NC(Cc1ccccc1)C(=O)O)OCc1ccccc1 (configuration not stated),inactive
18,Cc1cccc(C(=O)N2[C@@H](C(C)C)COc3cc(Br)ccc3S2(=O)=O)c1,"inconclusive: 12.6 µM [inhibitor, partial curve, poor fit]"
19,CCCC(=O)Nc1nnc(SCC(=O)Nc2ccc3c(c2)OCO3)s1,inactive
20,O=C(N/N=C/c1ccco1)c1cc(-c2cccs2)[nH]n1,"inconclusive: 10 µM [inhibitor, partial curve, poor fit]"
21,Cc1cc2c(c(C)c1Cl)C(c1ccc3c(c1)OCO3)CC(=O)O2 (configuration not stated),inactive

row,SMILES,Potency
1,c1cnc2ccc(C(c3nnnn3C3CCCCC3)N3CCN(C4CCCCC4)CC3)cc2c1 (configuration not stated),inactive
2,O=C(NCC(c1ccco1)N1CCCCC1)c1ccc(COc2ccccc2)cc1 (configuration not stated),inactive
3,Cc1ccccc1C(=O)Nc1c(C)[nH]c(=O)[nH]c1=O,"inconclusive: 0.0316 µM [inhibitor, full curve, poor fit]"
4,Cc1ccc(C(=O)Nc2ccc3c(c2)CCC3)cc1,"inconclusive: 4.47 µM [inhibitor, partial curve, poor fit]"
5,COc1ccccc1NC(=O)Nc1nnc(Cc2ccc(F)cc2)s1,"inconclusive: 12.6 µM [inhibitor, partial curve, poor fit]"
6,COc1cc(C(=O)NC23CC4CC(CC(C4)C2)C3)cc(OC)c1OC,"inconclusive: 0.316 µM [inhibitor, full curve, poor fit]"
7,Cc1noc(C)c1COc1ccc(CC(=O)NCc2ccccc2)cc1,"inconclusive: 1.26 µM [inhibitor, full curve, poor fit]"
8,CC1Oc2ccccc2C=C1/C=N/NC(=O)c1ccccc1O (configuration not stated),"inconclusive: 2.82 µM [inhibitor, partial curve, poor fit]"
9,COC(=O)C1C(=O)c2c([nH]c(C(=O)OC3CCCC3C)c2C)CC1C (configuration not stated),"inconclusive: 10 µM [inhibitor, partial curve, poor fit]"
10,COC(=O)c1nnn(-c2nonc2N)c1COc1ccc(C=O)cc1OC,"inconclusive: 12.6 µM [inhibitor, single point]"
11,O=C(NC1CCCc2ccccc21)c1ccccn1 (configuration not stated),inactive
12,CN1/C(=C/C(=O)CSc2ccccc2C(=O)O)C(C)(C)c2ccccc21,inactive
13,Cc1ccc([N+](=O)[O-])c(OCCCN2C(=O)NC(C)(C)C2=O)c1,"inconclusive: 1.12 µM [inhibitor, full curve, poor fit]"
14,COC(=O)c1ccc(C(=O)Nc2ccc3nc(-c4ccncc4)[nH]c3c2)cc1,inactive
15,COc1ccc(/C=N/NC(=O)c2ccc(O)cc2)cc1CN1CCCc2ccccc21,inactive
16,O=C(NC12CC3CC(CC(C3)C1)C2)c1cc([N+](=O)[O-])ccc1Cl,"inconclusive: 2.51 µM [inhibitor, partial curve, poor fit]"
17,CN(C)c1cc(-c2ccc(Cl)cc2Cl)oc(=O)c1Cl,"inconclusive: 5.62 µM [inhibitor, partial curve, poor fit]"
18,COc1cccc2cc(C(=O)NC3CC4CCC3C4)oc12 (configuration not stated),inactive
19,N#Cc1cc2c(=O)n3ccccc3nc2n(CCCn2ccnc2)c1=N,"inconclusive: 11.2 µM [inhibitor, single point]"
20,O=C(Nc1ccc2c(c1)C(=O)N(C1CCCCC1)C2=O)C1CCCO1 (configuration not stated),inactive

# A second format for some results above.
row	SMILES	Potency
13	Cc1ccc([N+](=O)[O-])c(OCCCN2C(=O)NC(C)(C)C2=O)c1	inconclusive: 1.12 µM [inhibitor, full curve, poor fit]
14	COC(=O)c1ccc(C(=O)Nc2ccc3nc(-c4ccncc4)[nH]c3c2)cc1	inactive
